Results published in patent publication US20190041402A1 (GOVERNING COUNCIL OF THE UNIVERSITY OF TORONTO, published 2019).
No constants are given. Whether binding was seen depends on the method and setting. In cells and extracts the contact can be indirect. Some binding calls cover weakened binding; strength is not graded here. For some of these results: Where a sequence is shown, tags or fusion partners need not be part of it.

Columns and labels:
[1] = target: T1, full-length transmembrane murine αKlotho expressed in HEK293 cells (mouse) (UniProt O35082); assay: immunoprecipitation (pull-down) from cell lysate
T1 sequence (looked up): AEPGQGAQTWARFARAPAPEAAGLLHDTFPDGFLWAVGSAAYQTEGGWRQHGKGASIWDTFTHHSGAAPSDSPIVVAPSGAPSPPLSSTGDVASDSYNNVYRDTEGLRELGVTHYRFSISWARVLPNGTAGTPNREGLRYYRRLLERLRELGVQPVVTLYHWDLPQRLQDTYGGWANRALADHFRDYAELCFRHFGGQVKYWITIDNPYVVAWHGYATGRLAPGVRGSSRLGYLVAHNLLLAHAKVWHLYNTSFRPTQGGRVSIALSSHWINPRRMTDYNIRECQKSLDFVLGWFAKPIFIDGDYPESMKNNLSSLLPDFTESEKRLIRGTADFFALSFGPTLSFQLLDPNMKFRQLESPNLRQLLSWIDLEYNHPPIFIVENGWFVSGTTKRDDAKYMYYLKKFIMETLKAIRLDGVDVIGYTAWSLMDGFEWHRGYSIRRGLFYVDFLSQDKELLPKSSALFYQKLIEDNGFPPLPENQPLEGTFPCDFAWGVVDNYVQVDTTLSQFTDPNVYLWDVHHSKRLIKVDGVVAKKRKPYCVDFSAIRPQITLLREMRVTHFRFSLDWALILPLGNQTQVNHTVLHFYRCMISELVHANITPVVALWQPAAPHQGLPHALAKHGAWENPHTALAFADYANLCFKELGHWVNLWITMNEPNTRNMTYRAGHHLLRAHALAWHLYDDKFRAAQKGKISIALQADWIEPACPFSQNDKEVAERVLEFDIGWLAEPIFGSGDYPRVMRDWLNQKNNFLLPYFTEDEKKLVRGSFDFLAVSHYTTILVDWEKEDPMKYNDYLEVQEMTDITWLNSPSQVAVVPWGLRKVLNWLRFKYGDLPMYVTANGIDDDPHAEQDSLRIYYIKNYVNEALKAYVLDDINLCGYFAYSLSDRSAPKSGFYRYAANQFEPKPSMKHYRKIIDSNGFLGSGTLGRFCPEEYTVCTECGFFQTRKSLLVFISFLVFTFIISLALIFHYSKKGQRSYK

[2] = target: T2, mouse αKlotho (endogenous or transgenic, serum, urine and kidney lysate) (mouse) (UniProt O35082); assay: immunoprecipitation (pull-down) from serum and urine
T2 sequence (looked up): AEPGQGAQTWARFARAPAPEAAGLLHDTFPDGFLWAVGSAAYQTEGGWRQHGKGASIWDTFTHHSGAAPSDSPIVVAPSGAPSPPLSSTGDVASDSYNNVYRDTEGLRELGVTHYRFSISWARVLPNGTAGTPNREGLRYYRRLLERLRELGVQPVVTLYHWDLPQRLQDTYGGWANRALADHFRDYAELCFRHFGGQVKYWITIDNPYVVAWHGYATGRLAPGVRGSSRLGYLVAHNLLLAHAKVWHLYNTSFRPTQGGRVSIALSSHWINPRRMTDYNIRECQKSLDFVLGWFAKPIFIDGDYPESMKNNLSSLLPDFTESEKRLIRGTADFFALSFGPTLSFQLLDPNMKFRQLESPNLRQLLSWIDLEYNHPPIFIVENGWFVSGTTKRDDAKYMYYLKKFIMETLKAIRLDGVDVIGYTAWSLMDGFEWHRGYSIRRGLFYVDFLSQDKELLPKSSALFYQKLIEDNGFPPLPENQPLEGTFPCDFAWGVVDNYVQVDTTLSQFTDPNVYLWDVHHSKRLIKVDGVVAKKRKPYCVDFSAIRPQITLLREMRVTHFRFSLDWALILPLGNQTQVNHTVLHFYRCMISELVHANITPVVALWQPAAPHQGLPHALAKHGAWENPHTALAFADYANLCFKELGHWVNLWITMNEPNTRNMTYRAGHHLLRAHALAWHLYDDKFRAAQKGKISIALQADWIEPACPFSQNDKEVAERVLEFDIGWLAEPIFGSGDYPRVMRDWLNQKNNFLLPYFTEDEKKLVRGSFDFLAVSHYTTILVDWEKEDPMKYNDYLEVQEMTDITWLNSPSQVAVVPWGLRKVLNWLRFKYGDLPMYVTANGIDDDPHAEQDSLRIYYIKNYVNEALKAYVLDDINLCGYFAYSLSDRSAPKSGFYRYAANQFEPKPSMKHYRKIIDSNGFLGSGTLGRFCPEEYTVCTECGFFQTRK

[3] = target: T3, human soluble αKlotho (endogenous, serum and urine) (human) (UniProt Q9UEF7); assay: as above
T3 sequence (looked up): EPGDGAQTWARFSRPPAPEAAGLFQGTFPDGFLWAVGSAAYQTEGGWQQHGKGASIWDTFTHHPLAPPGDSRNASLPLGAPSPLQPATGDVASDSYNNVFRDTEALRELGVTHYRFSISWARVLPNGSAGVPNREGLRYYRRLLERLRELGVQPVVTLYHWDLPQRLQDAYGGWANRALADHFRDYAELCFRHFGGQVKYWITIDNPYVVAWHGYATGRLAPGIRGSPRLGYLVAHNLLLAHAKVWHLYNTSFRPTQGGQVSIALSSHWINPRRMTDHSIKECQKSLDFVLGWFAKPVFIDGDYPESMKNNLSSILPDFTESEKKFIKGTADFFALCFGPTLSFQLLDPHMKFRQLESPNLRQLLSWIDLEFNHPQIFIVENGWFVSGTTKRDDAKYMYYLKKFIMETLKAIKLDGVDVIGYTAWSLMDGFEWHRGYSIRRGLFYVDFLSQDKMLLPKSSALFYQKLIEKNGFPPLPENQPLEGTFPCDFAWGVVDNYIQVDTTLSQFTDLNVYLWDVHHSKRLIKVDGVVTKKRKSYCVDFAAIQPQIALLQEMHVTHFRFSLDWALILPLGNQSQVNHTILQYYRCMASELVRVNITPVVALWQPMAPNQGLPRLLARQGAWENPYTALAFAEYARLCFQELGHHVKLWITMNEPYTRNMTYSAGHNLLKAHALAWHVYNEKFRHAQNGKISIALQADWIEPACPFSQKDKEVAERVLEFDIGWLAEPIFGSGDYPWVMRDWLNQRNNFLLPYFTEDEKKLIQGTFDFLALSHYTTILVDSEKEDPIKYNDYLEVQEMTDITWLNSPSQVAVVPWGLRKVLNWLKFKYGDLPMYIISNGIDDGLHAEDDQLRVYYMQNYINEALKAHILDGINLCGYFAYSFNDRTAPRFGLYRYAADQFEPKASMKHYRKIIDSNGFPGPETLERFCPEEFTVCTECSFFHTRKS

[4] = target: T4, extracellular domain of murine αKlotho with C-terminal FLAG tag, secreted by HEK293 cells (mouse) (UniProt O35082); assay: immunoprecipitation (pull-down) from culture medium
T4 sequence (looked up): T2 sequence (looked up)

Measured: binding

B1: sb106 IgG (antibody, V domains shown)
VH: EVQLVESGGGLVQPGGSLRLSCAASGFNISYYSIHWVRQAPGKGLEWVAYISPSYGYTSYADSVKGRFTISADTSKNTAYLQMNSLRAEDTAVYYCARYYVYASHGWAGYGMDYWGQGTLVTVSS
VL: DIQMTQSPSSLSASVGDRVTITCRASQSVSSAVAWYQQKPGKAPKLLIYSASSLYSGVPSRFSGSRSGTDFTLTISSLQPEDFATYYCQQAGYSPITFGQGTKVEIKR
notes: also called sb106 (48) full length IgG
binds: [1] | [2] | [3] | [4]
